Values quoted from earlier work, collected in US11690852B2, “Reduction of the incidence or recurrence of breast cancer in postmenopausal women treated with intravaginal sex steroid precursor” (Endorecherche, Inc., priority 2020, dated 2023).
At least one structure is not confirmed: it was looked up by name or label, or the drawing left a doubt.

System: Ki-67
Details: 20 mg once daily oral; premenopausal women at high risk for breast cancer; cited from earlier work

CC1=C(c2ccc(O)cc2)[C@H](c2ccc(OCCN3CCCCC3)cc2)Oc2cc(O)ccc21 [acolbifene]
biomarker Ki-67 (in words): decrease of the biomarker Ki-67
